Data: patent publication US10987357B2, “Aerosolized fluoroquinolones and uses thereof” (Horizon Orphan, LLC, priority 2005, dated 2021)

Assay: Oral taste test (20 uL on the tongue)
Format: in vivo, human

O=C(O)c1cn(C2CC2)c2cc(N3CCNCC3)c(F)cc2c1=O [Ciprofloxacin]
Oral taste, Initial Solution (10 mg/mL, single volunteer): sweet almond-like taste
Oral taste, Final Solution (after pH adjustment): very strong bitter
